{"sequences": {"note": "Chains of the proteins cited; added tags and fusions are not shown. Residues count along the entry.", "UniProt P26368, 2-475": "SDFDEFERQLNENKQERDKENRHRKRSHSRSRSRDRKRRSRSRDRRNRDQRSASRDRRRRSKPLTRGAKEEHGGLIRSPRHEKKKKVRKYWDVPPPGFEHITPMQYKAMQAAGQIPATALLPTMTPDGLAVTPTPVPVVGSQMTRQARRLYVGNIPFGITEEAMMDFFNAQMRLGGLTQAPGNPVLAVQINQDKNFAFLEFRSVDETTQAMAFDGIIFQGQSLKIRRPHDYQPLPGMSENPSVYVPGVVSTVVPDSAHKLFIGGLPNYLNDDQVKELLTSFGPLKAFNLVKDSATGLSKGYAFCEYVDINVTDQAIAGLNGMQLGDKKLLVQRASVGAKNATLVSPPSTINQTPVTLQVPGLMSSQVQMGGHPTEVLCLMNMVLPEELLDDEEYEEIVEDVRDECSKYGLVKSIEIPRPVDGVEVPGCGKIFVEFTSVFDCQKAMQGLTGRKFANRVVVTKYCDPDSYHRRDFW"}, "source": "patent US20160017322", "biological_target": "U2AF65 (Homo sapiens) (UniProt P26368)", "assay": "pull-down", "conditions": "very weak binding if any to the retention target; protein in an extract; protein details: endogenous, HeLa nuclear extract", "note": "The exact form of at least one protein or probe is not confirmed. At least one result comes from cells or an extract, where the contact may be indirect. Weaker means in comparison with the reference protein, sequence or condition of that experiment."}
{"sequence": "CAGGCCCCAGCUCUGCAG [CD5 RNA (antisense target sequence)]", "values": [{"measurement": "binding result", "result": "binds more weakly"}]}
